Measurements reported in the supplement of paper PMC8728848.
Some of the results follow.

Columns and labels:
Assay in all cases: glycan array binding signal (z-score within array); higher = stronger binding
Details in all cases: glycan notation: IUPAC condensed, linker removed
[1] = molecular target: Gal(a1-3)Gal(b1-3)GlcNAc
Method in brief: (§1)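 Glycan array binding is given as a within-array Z-score, which can be read as non-binding when negative. The arrays, 3228 of them, came from the Consortium for Functional Glycomics database and were retained only where the protein sequence was available. Z-scores were averaged across arrays of the same protein sequence at different concentrations or buffers and across linkers.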

[2] = molecular target: Gal(a1-3)Gal(b1-3)GlcNAc(b1-2)Man
Method in brief: as §1

[3] = molecular target: Gal(a1-3)Gal(b1-3)GlcNAc(b1-2)Man(a1-3)[Gal(a1-3)Gal(b1-3)GlcNAc(b1-2)Man(a1-6)]Man(b1-4)GlcNAc(b1-4)GlcNAc
Method in brief: as §1

[4] = molecular target: Gal(a1-3)Gal(b1-3)GlcNAc(b1-3)GalNAc
Method in brief: as §1

[5] = molecular target: Gal(a1-3)Gal(b1-3)GlcNAc(b1-6)GalNAc
Method in brief: as §1

[6] = molecular target: Gal(a1-3)Gal(b1-3)[Fuc(a1-4)]GlcNAc(b1-2)Man(a1-3)[Gal(a1-3)Gal(b1-3)[Fuc(a1-4)]GlcNAc(b1-2)Man(a1-6)]Man(b1-4)GlcNAc(b1-4)GlcNAc
Method in brief: as §1

[7] = molecular target: Gal(a1-3)Gal(b1-4)Glc
Method in brief: as §1

[8] = molecular target: Gal(a1-3)Gal(b1-4)GlcNAc
Method in brief: as §1

[9] = molecular target: Gal(a1-3)Gal(b1-4)GlcNAc(b1-2)Man
Method in brief: as §1

[10] = molecular target: Gal(a1-3)Gal(b1-4)GlcNAc(b1-2)Man(a1-3)[Gal(a1-3)Gal(b1-4)GlcNAc(b1-2)Man(a1-6)]Man(b1-4)GlcNAc(b1-4)GlcNAc
Method in brief: as §1

[11] = molecular target: Gal(a1-3)Gal(b1-4)GlcNAc(b1-3)GalNAc
Method in brief: as §1

[12] = molecular target: Gal(a1-3)Gal(b1-4)GlcNAc(b1-6)GalNAc
Method in brief: as §1

[13] = molecular target: Gal(a1-3)Gal(b1-4)[Fuc(a1-3)]GlcNAc
Method in brief: as §1

[14] = molecular target: Gal(a1-3)Gal(b1-4)[Fuc(a1-3)]GlcNAc(b1-2)Man(a1-3)[Gal(a1-3)Gal(b1-4)[Fuc(a1-3)]GlcNAc(b1-2)Man(a1-6)]Man(b1-4)GlcNAc(b1-4)GlcNAc
Method in brief: as §1

[15] = molecular target: Gal(a1-3)GalNAc
Method in brief: as §1

[16] = molecular target: Gal(a1-3)[Gal(a1-4)]Gal(b1-4)GlcNAc
Method in brief: as §1

[17] = molecular target: Gal(a1-4)Gal(b1-3)GlcNAc(b1-2)Man(a1-3)[Gal(a1-4)Gal(b1-3)GlcNAc(b1-2)Man(a1-6)]Man(b1-4)GlcNAc(b1-4)GlcNAc
Method in brief: as §1

[18] = molecular target: Gal(a1-4)Gal(b1-4)Glc
Method in brief: as §1

[19] = molecular target: Gal(a1-4)Gal(b1-4)GlcNAc
Method in brief: as §1

[20] = molecular target: Gal(a1-4)Gal(b1-4)GlcNAc(b1-2)Man(a1-3)[Gal(a1-4)Gal(b1-4)GlcNAc(b1-2)Man(a1-6)]Man(b1-4)GlcNAc(b1-4)GlcNAc
Method in brief: as §1

[21] = molecular target: Gal(a1-4)Gal(b1-4)GlcNAc(b1-3)Gal(b1-4)Glc
Method in brief: as §1

[22] = molecular target: Gal(a1-4)GlcNAc
Method in brief: as §1

[23] = molecular target: Gal(a1-6)Glc
Method in brief: as §1

[24] = molecular target: Gal(b1-2)Gal
Method in brief: as §1

[25] = molecular target: Gal(b1-3)Gal
Method in brief: as §1

[26] = molecular target: Gal(b1-3)Gal(b1-4)GlcNAc
Method in brief: as §1

[27] = molecular target: Gal(b1-3)GalNAc
Method in brief: as §1

[28] = molecular target: Gal(b1-3)GalNAc(a1-3)[Fuc(a1-2)]Gal(b1-4)Glc
Method in brief: as §1

[29] = molecular target: Gal(b1-3)GalNAc(a1-3)[Fuc(a1-2)]Gal(b1-4)GlcNAc
Method in brief: as §1

[30] = molecular target: Gal(b1-3)GalNAc(b1-3)Gal
Method in brief: as §1

[31] = molecular target: Gal(b1-3)GalNAc(b1-3)Gal(a1-4)Gal(b1-4)Glc
Method in brief: as §1

[32] = molecular target: Gal(b1-3)GalNAc(b1-4)Gal(b1-4)Glc
Method in brief: as §1

[33] = molecular target: Gal(b1-3)GalNAc(b1-4)[Neu5Ac(a2-3)]Gal(b1-4)Glc
Method in brief: as §1

[34] = molecular target: Gal(b1-3)GlcNAc
Method in brief: as §1

[35] = molecular target: Gal(b1-3)GlcNAc(a1-3)Gal(b1-4)GlcNAc
Method in brief: as §1

[36] = molecular target: Gal(b1-3)GlcNAc(a1-6)Gal(b1-4)GlcNAc
Method in brief: as §1

[37] = molecular target: Gal(b1-3)GlcNAc(b1-2)Man
Method in brief: as §1

[38] = molecular target: Gal(b1-3)GlcNAc(b1-2)Man(a1-3)[Gal(b1-3)GlcNAc(b1-2)Man(a1-6)]Man(b1-4)GlcNAc(b1-4)GlcNAc
Method in brief: as §1

B1: GS7807G-bfa-506-18-506 (Bacteroides fragilis) (protein)
chain: ASCDKFDEINTDPDATTKVTSSLLATGLLLDITSSSASKSFIYDELLAKQMAWGESMEDYQYNVFGRSGFGGYTTLINAQKMVESVSDDNVNAYDGLAHFIKAYKIFYMSMEMGDLPYEEALQGELGLVRPKYNTQKEVMNFILSDLETAYELFSTAKDFDGDPILGGSISKWKKATTAFQLKVLMHLSKKESDADLKVKERFARIVASGSLMESNEDNLQMKYADKANTVYPFHNTNTKHAGYAMLSTMLIDKFKATGDIRMFYYAKPAKAKLNEGVTADSWDAYIGTDPSLPFEQIEKAYATEQYSGFNARYTDYPSGEPVVRLGYAEQNFILAEAAVRGWISGDASAYYKKAIRAHMEFIASNTPDEEVYHHGHPITEEAIAAFLETPAIQLSGEKEEDIEKILTQRYLASFMQHPYDVYYDYRRTGYPVLPINPATNRNTMNDRLPMRWMYPKSESDYNLEHQNEALERQFGGVDDVNKLMWILQ
- glycan array binding signal (z-score) [1]: -0.248
- glycan array binding signal (z-score) [2]: 0.779
- glycan array binding signal (z-score) [3]: 4.66
- glycan array binding signal (z-score) [4]: 0.034
- glycan array binding signal (z-score) [5]: 1.31
- glycan array binding signal (z-score) [6]: 1.08
- glycan array binding signal (z-score) [7]: 0.171
- glycan array binding signal (z-score) [8]: 0.15
- glycan array binding signal (z-score) [9]: -0.042
- glycan array binding signal (z-score) [10]: 2.43
- glycan array binding signal (z-score) [11]: 1.54
- glycan array binding signal (z-score) [12]: 0.531
- glycan array binding signal (z-score) [13]: -0.692
- glycan array binding signal (z-score) [14]: 0.104
- glycan array binding signal (z-score) [15]: -0.513
- glycan array binding signal (z-score) [16]: 1.77
- glycan array binding signal (z-score) [17]: 1.08
- glycan array binding signal (z-score) [18]: 0.636
- glycan array binding signal (z-score) [19]: 0.104
- glycan array binding signal (z-score) [20]: 1.29
- glycan array binding signal (z-score) [21]: 0.105
- glycan array binding signal (z-score) [22]: -0.982
- glycan array binding signal (z-score) [23]: -1.14
- glycan array binding signal (z-score) [24]: -0.442
- glycan array binding signal (z-score) [25]: -0.337
- glycan array binding signal (z-score) [26]: 0.463
- glycan array binding signal (z-score) [27]: -0.079
- glycan array binding signal (z-score) [28]: 0.056
- glycan array binding signal (z-score) [29]: -0.687
- glycan array binding signal (z-score) [30]: -0.588
- glycan array binding signal (z-score) [31]: 1.2
- glycan array binding signal (z-score) [32]: 0.291
- glycan array binding signal (z-score) [33]: 0.38
- glycan array binding signal (z-score) [34]: -0.507
- glycan array binding signal (z-score) [35]: -0.228
- glycan array binding signal (z-score) [36]: 0.183
- glycan array binding signal (z-score) [37]: -0.124
- glycan array binding signal (z-score) [38]: 2.12
